The target of experiment [1] is T1, GST–PTP-PEST-C231S fusion protein (catalytically inactive trapping mutant) (UniProt Q05209).
T1 sequence: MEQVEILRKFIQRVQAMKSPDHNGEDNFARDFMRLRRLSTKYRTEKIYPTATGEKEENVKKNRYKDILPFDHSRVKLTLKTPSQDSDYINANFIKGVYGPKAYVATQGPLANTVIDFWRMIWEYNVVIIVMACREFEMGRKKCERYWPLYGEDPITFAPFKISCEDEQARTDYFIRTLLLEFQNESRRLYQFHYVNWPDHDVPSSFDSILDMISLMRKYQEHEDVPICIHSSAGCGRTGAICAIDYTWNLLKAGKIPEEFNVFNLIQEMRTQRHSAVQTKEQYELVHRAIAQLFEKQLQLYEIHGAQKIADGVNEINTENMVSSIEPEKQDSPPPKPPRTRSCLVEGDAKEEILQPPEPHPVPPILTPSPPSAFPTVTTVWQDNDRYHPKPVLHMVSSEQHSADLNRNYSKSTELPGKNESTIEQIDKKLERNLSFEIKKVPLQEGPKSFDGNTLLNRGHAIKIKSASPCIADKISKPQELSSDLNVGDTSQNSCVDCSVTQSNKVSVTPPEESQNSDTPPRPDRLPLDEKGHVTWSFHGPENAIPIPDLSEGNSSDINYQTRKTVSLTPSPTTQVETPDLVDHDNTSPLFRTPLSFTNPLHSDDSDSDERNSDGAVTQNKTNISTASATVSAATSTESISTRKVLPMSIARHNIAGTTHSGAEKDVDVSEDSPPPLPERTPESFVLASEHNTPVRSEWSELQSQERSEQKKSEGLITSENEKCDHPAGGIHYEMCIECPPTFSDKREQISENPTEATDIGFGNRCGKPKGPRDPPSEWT
The experiment in a line: pull-down; substrate trapping: 10 µg GST fusion protein with 1 mg lysate of pervanadate-treated transfected cells (HEK 293T named for Fig. 1B and 6B), modified RIPA buffer, 4°C, 1 hour; western blot with anti-YFP; only the target purified. (A western blot detects proteins with antibodies after separation by electrophoresis.)

The target in another experiment is T2, YFP–p120-1A Y335F (UniProt P30999).
T2 sequence: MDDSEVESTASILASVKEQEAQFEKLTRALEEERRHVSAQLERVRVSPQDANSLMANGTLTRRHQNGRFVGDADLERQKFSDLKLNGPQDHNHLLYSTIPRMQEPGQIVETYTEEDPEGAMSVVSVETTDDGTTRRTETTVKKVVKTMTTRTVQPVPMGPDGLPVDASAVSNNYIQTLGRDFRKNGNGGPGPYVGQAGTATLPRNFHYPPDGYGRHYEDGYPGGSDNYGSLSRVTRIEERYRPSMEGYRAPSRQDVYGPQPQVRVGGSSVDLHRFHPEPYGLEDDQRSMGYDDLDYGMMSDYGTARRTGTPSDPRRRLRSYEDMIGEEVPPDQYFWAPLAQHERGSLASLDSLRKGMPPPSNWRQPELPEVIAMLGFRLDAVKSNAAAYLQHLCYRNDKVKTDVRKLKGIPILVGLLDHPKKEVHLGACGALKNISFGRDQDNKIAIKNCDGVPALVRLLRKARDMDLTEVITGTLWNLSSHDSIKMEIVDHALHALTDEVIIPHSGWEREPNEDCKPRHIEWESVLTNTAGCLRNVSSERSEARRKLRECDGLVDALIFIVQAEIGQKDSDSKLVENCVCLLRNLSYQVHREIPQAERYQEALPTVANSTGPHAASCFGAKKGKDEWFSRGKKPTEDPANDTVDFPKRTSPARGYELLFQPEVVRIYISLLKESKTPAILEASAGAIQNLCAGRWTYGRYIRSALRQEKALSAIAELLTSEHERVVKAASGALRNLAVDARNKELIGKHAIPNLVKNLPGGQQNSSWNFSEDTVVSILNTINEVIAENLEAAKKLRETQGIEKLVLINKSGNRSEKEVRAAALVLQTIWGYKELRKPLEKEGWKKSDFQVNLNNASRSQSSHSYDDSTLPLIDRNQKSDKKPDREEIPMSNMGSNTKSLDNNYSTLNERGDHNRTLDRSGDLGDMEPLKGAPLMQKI
Description: co-IP; YFP-tagged p120 constructs transiently expressed in HCT116-KD cells, immunoprecipitated with JL-8 in modified RIPA buffer; blots for VAV2, cortactin, E-cadherin.

For experiment [2], the target named is T1, GST–PTP-PEST-C231S fusion protein (catalytically inactive trapping mutant). Description: condition: 10 µg fusion protein per 1 mg of cell lysate; pull-down; substrate trapping: 10 µg GST fusion protein with 1 mg lysate of pervanadate-treated transfected cells (HEK 293T named for Fig. 1B and 6B), modified RIPA buffer, 4°C, 1 hour; western blot with anti-YFP; only the target purified.

Experiment [3] has as its target T3, p120 catenin, endogenous (human cell lines) (human (endogenous in KM12C, HEK 293T, HCT116)) (UniProt O60716).
T3 sequence: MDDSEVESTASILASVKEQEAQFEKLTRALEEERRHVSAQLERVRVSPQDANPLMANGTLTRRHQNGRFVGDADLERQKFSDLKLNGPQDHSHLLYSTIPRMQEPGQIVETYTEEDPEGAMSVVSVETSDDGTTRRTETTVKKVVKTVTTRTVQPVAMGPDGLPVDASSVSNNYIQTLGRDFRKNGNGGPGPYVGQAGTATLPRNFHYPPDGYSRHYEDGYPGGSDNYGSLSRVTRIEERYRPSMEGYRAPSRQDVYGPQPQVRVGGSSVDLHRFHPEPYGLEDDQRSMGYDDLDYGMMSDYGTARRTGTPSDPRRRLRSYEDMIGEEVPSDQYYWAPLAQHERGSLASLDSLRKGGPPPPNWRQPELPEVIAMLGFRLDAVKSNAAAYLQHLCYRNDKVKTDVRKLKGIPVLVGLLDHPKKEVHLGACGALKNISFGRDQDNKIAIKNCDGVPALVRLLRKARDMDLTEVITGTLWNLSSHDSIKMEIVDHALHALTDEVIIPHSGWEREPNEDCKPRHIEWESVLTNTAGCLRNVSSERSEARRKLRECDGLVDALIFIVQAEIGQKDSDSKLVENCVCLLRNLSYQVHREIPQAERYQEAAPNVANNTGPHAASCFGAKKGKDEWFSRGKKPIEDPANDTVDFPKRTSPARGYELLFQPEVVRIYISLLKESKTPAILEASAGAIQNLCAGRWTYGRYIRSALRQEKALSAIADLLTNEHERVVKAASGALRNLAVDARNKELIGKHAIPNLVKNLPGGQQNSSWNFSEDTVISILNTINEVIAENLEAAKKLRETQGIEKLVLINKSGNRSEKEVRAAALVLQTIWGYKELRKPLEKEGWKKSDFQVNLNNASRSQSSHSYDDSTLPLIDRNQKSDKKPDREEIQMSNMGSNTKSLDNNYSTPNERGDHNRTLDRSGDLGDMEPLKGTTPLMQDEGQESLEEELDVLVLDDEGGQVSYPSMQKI
The experiment in a line: co-IP; endogenous p120 immunoprecipitated with monoclonal p120 antibody from HCT116-NT and HCT116-KD cells in modified RIPA buffer; blots for VAV2, cortactin, p190 RhoGAP.

Experiment [4] concerns the target E-cadherin, endogenous (human cell lines) (human (endogenous in KM12C, HEK 293T, HCT116)). Description: co-IP; cell-surface E-cadherin bound by DECMA-1 on HCT116 cells on ice (non-targeting or PTP-PEST smart pool siRNA), lysis in 50 mM Tris pH 7.6, 150 mM NaCl, 0.5% NP-40, protein-A–Sepharose; blots for p120, α-catenin, β-catenin.
For experiment [5], the target named is GFP-tagged VAV2 C-terminal SH3-SH2-SH3 domain. The experiment in a line: co-IP; GFP-SH3-SH2-SH3 VAV2 transiently transfected into HCT116-NT or HCT116-KD cells, immunoprecipitated with anti-GFP antibody (48 hours), blot for endogenous p120.

These are yes or no findings as the source states them, for the method shown. Binding seen in cells or lysates may run through a third protein. For some assays here: Binding calls can cover weak binding; strength is not graded here. For some assays here: Where a sequence is shown, tags or fusion partners need not be part of it.

Data on six molecules can be found in PMC4007762.

Regarding “C-terminal deletion of p120 (p120-ΔC) (domain or fragment)”, the binding entry in experiment [1] is recorded as “binds”.
Turning to “E-cadherin, endogenous (human cell lines)”, the binding entry with YFP–p120-1A Y335F is given as “binds”.
Take YFP-tagged p120 4A isoform: the binding result in experiment [2] is recorded as “no binding”; in experiment [1], “binds weakly”.
“YFP-tagged p120 N-terminal domain (domain or fragment)”: the binding result in experiment [1] is reported as “binds”.
As for “p190RhoGAP, endogenous (HCT116 cells) (human (endogenous in HCT116))”, the binding entry in experiment [3] was “no binding”.

B1: p120 catenin, endogenous (human cell lines) (protein, UniProt O60716 1-968)
chain: T3 sequence
With B1, the binding entry in experiment [4] and in experiment [5] was “binds” each time.
